Source: the supplement of paper PMC3334620
Whole data set: some 33,000 sequences, median “E-score (-0.5 to 0.5)” near -0.0014, cut for the highest 2% near 0.25. Some of the results follow.

What follows are sequences tested against T1, Cad1 (UniProt P24813) (assay: PBM E-score (8-mer binding enrichment) (E-score (-0.5 to 0.5)); higher = stronger / more preferred TF binding). Conditions: protein concentration: 100 nM; construct: GST-full length.
T1 sequence: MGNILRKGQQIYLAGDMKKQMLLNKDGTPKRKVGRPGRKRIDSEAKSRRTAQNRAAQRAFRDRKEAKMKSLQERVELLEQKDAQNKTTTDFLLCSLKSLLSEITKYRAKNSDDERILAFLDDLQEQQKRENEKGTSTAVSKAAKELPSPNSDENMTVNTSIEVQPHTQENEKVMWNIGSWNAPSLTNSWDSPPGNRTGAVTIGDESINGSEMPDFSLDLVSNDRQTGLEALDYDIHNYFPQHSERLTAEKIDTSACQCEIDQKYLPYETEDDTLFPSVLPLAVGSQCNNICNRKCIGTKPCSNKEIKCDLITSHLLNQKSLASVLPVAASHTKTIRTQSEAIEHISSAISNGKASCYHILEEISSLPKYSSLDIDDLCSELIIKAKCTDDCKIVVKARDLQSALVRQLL
Outline: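 Universal all-10-mer Agilent arrays, double-stranded by primer extension on fresh or once-stripped slides, were probed with about 100-200 nM GST-tagged yeast transcription factors made by PURExpress. Fluorescent anti-GST detected bound protein, and masliner normalised the scans. E-scores from the Universal PBM Analysis Suite were given to each ungapped eight-base word pooled with its reverse complement.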

GGGGTTAC was tested. Which “PBM E-score” value did it give?
Its value is -0.29.

CGGGAATA was tested. Which “PBM E-score” value did it give?
Its value is -0.00204.

With AGCAGAAC as the sequence, how does the “PBM E-score” value read?
Its value is 0.0692.

Which “PBM E-score” value does the source give for CGATCCCG here?
The value was -0.265.

For TATGGTGA, which “PBM E-score” value is on record?
The value was -0.0568.

For GAGGGGCC, which “PBM E-score” value is on record?
Its value is -0.25.

CTCCGCCA was tested. Which “PBM E-score” value did it give?
Its value is -0.217.

How did the “PBM E-score” value turn out when ACTTGCCC was run?
Its value is -0.0536.

Which “PBM E-score” value does the source give for CCTTACAA here?
Its value is -0.0338.

How did the “PBM E-score” value turn out when AGTAGTAG was run?
Its value is -0.0473.

How did the “PBM E-score” value turn out when AATATACT was run?
The value was 0.0724.

How did the “PBM E-score” value turn out when CAAACTAA was run?
Its value is 0.258.

With AAGGATTC as the sequence, how does the “PBM E-score” value read?
Its value is -0.104.

With GGGACCAA as the sequence, how does the “PBM E-score” value read?
The value was -0.118.

Which “PBM E-score” value does the source give for GCTCAGCC here?
Its value is -0.143.

Which “PBM E-score” value does the source give for GAGGACAA here?
Its value is -0.133.

Which “PBM E-score” value does the source give for CGGAGGTC here?
The value was -0.155.

With TACAACGA as the sequence, how does the “PBM E-score” value read?
The value was 0.0596.

CAATTTGA was tested. Which “PBM E-score” value did it give?
Its value is -0.0156.

For ATAGCCCA, which “PBM E-score” value is on record?
Its value is 0.062.

How did the “PBM E-score” value turn out when CCCCGCGA was run?
Its value is -0.0941.

Which “PBM E-score” value does the source give for CCCTGACA here?
The value was -0.0982.

For CATAGTTA, which “PBM E-score” value is on record?
Its value is 0.0274.

With ACTTCGCT as the sequence, how does the “PBM E-score” value read?
The value was 0.0324.

ATAAGCTC was tested. Which “PBM E-score” value did it give?
The value was 0.121.

With ACACGCTG as the sequence, how does the “PBM E-score” value read?
Its value is 0.0723.

How did the “PBM E-score” value turn out when CGAAACCC was run?
Its value is 0.0648.

With CCAGCTGC as the sequence, how does the “PBM E-score” value read?
The value was -0.0793.

For GATTTGAC, which “PBM E-score” value is on record?
The value was 0.0609.

How did the “PBM E-score” value turn out when AATCTATG was run?
The value was 0.104.

For AGCGTGGC, which “PBM E-score” value is on record?
Its value is 0.0167.

CTGTCGGC was tested. Which “PBM E-score” value did it give?
The value was -0.107.

For AATATCGC, which “PBM E-score” value is on record?
Its value is 0.162.

How did the “PBM E-score” value turn out when CCCAAACA was run?
The value was 0.0806.

For CGCGATTA, which “PBM E-score” value is on record?
The value was 0.187.

How did the “PBM E-score” value turn out when AGTGACCC was run?
The value was -0.137.

With ATTGATCA as the sequence, how does the “PBM E-score” value read?
The value was 0.0521.

For GATTTCGC, which “PBM E-score” value is on record?
The value was 0.28.

Which “PBM E-score” value does the source give for GAGTTTCA here?
The value was 0.0278.

For CCACGCGC, which “PBM E-score” value is on record?
Its value is -0.13.

GCGTGTAC was tested. Which “PBM E-score” value did it give?
The value was 0.0406.

With CCGTTGTA as the sequence, how does the “PBM E-score” value read?
The value was 0.193.

CAAGTTAG was tested. Which “PBM E-score” value did it give?
The value was -0.0472.

Which “PBM E-score” value does the source give for CTCTAAAA here?
Its value is -0.0258.

Which “PBM E-score” value does the source give for AATACTTG here?
The value was 0.0385.

With CACGCAGC as the sequence, how does the “PBM E-score” value read?
Its value is -0.0845.

How did the “PBM E-score” value turn out when ATAGATCG was run?
The value was -0.113.

Which “PBM E-score” value does the source give for AGTACGTC here?
The value was -0.0323.

Which “PBM E-score” value does the source give for AAGATTTA here?
The value was -0.0543.

AGGTCAGC was tested. Which “PBM E-score” value did it give?
Its value is 0.0991.

Which “PBM E-score” value does the source give for CGCCTAAA here?
The value was -0.109.

TATATCAA was tested. Which “PBM E-score” value did it give?
Its value is 0.183.

Which “PBM E-score” value does the source give for CCCATGCG here?
Its value is -0.0811.

With GCAGCTAC as the sequence, how does the “PBM E-score” value read?
The value was 0.184.

For AACAACCT, which “PBM E-score” value is on record?
The value was -0.161.

For AACACGTC, which “PBM E-score” value is on record?
The value was -0.0172.

For AGGGTATC, which “PBM E-score” value is on record?
The value was -0.0476.

How did the “PBM E-score” value turn out when ACACTCTC was run?
The value was 0.0871.

AGCGAAAC was tested. Which “PBM E-score” value did it give?
The value was 0.206.

CGCCAACC was tested. Which “PBM E-score” value did it give?
Its value is -0.114.

GCATCTCC was tested. Which “PBM E-score” value did it give?
Its value is -0.217.

Which “PBM E-score” value does the source give for GGTAGAAA here?
The value was -0.08.

For AGATATAT, which “PBM E-score” value is on record?
Its value is 0.193.

Which “PBM E-score” value does the source give for CCGCCACA here?
The value was -0.146.

With CTTTTTCC as the sequence, how does the “PBM E-score” value read?
Its value is 0.018.

Which “PBM E-score” value does the source give for AGAAGCCT here?
The value was -0.00153.

With AGGCTGGC as the sequence, how does the “PBM E-score” value read?
Its value is -0.355.

How did the “PBM E-score” value turn out when CGGTAGAG was run?
The value was -0.115.

Which “PBM E-score” value does the source give for CGGCCCGC here?
The value was 0.00361.

How did the “PBM E-score” value turn out when AAACAACG was run?
Its value is -0.054.

AGGCCTTG was tested. Which “PBM E-score” value did it give?
The value was -0.142.

How did the “PBM E-score” value turn out when GTGGATAA was run?
Its value is 0.0412.

GAGGTCGA was tested. Which “PBM E-score” value did it give?
Its value is -0.153.

How did the “PBM E-score” value turn out when CGTTCTAA was run?
The value was 0.0756.

For AAGATGGG, which “PBM E-score” value is on record?
Its value is -0.0605.

For CAACCACC, which “PBM E-score” value is on record?
Its value is -0.036.

Which “PBM E-score” value does the source give for GGCTCCCA here?
Its value is -0.326.

For ATGGAGGG, which “PBM E-score” value is on record?
The value was -0.255.

For ATTGCCGC, which “PBM E-score” value is on record?
The value was -0.00666.

With GCCGTCGA as the sequence, how does the “PBM E-score” value read?
The value was 0.174.

TCACCCAA was tested. Which “PBM E-score” value did it give?
Its value is 0.0405.

Which “PBM E-score” value does the source give for ACCTGAAC here?
Its value is -0.116.

Which “PBM E-score” value does the source give for GCTGATCC here?
Its value is 0.0438.

AGTCCATG was tested. Which “PBM E-score” value did it give?
The value was -0.137.

For CGGTACAA, which “PBM E-score” value is on record?
Its value is 0.0609.

AAAATATC was tested. Which “PBM E-score” value did it give?
Its value is 0.198.
